The results in this text go back to patent US20250304918A1.

B1: CACNG1 mAb #2 (antibody, V domains shown)
VH: QVQLQQWGAGLLKPSATLSRTCAVYGGSFSGYYWNWIRQSPGKGLEWIGEILHSGRTNYNPSLKSRVTISVDTSKNQFSLKLTSVTAADTAVYYCAGRIAARHGWFDPWGQGTLVTVSS
VL: DIQMTQSPSSVSTSVGDRVTISCRASQDIRKWLAWYQQKPGKAPKLLIYATSSLQSGVPSRFSGSGSGTDFTLTISSLQPEDFATYFCQQANSFPFTFGQGTKLEIK
B2: CACNG1 mAb #3 (antibody, V domains shown)
VH: QVQLVESGGGVVQPGRSLRLSCAASGFTFSTYGMHWVRQAPGKGLEWVAVIWHDGSDKYYVDSVKGRFSIARDNSKNTLYLQMNSLRVEDTGIYYCARRGIRGTVFDHWGLGTLVTVSS
VL: DIQMTQSPSTLSASVGDRVTLTCRASQSISNKLAWYQQKPGKAPNLLIYKASNLESGVPSRFSGSGSGTEFTLTISSLQPDDFATYYCQQYNSYSWTFGQGTKVEIK
B3: CACNG1 mAb #4 (antibody, V domains shown)
VH: QVQLQESGPGLVKPSETLSLTCTVSGDSINNYYWTWLRQPPGKGLEWIGYIYYSGSANYNPSLKSRVTISVDTSKNQFSLKLNSVTAADTAVYYCARGAVKYFRHWGQGTLVTVSS
VL: EIVLTQSPGTLSLSPGERATLSCRASQTINHNNLAWYQQRPGQAPRLLIYGASNRATAIPDRFSGSGSGTDFTLTISRLEPEDFEVYSCQQYGSLPLTFGGGTKVEIK

Results are given in words; binding and its absence hold for the method and conditions named. Binding calls can cover weak binding; strength is not graded here.

The assay addresses monkey CACNG1 (monkey). The assay can be described thus: no binding assay described; definition of the label.
Turning to B1, the binding result is “binds”.

Take B2: the binding entry was “binds”.

In the case of B3, the binding result is on record as “binds”.
